In the experiment the test system is isolate of guinea-pig ileum. Description: Anti-histamine activity in an isolate of guinea-pig ileum, suspended in a Tyrode bath at 32°-35° C. Conditions: Cavia porcellus, isolated guinea-pig ileum, read-out: anti-histamine activity, ED50. As to the method:
The anti-histamine activity was tested in an isolate of guinea-pig ileum, suspended in a Tyrode bath at 32°-35° C. according to a protocol described by R. A. Turner (Screening Methods in Pharmacology, Academic Press, 1965, p. 43).

Molecules are shown by their SMILES.

In the case of `C(=C\c1ccccc1)/CN1CCN(C(c2ccccc2)c2ccccc2)CC1` [Cinnarizine], the IC50 turned out to be 170 nM.

The values above are taken from patent publication US4603134A, “Piperazine derivative and pharmaceutical composition containing the same” (Ferrer International, S.A., priority 1984, dated 1986).
